Laboratory results: PubChem BioAssay AID248 (DTP/NCI, 2004)
The list shows only some results of the screen, not a fair sample: it is rich in T/C values a quarter to a half above the control, in often repeated tests (any T/C) and in doses without a T/C. Further doses and runs are listed elsewhere. T/C gives the treated animals as a percentage of the vehicle group. Some doses have a count of surviving animals in place of a T/C: the source holds a T/C of zero for them, seemingly a mark for toxic or unscored doses. Some doses without a T/C left all or most animals alive at the check, yet need not have been tolerated: the source hardly ever lists a survival T/C far under the control, and the zero likely stands for such cases as well. Counts of survivors are from the toxicity check (mostly the fifth day) where no day follows; animals may have died later. Schedule codes are those of the source, taken here to give the interval after Q, in days (D) or hours (H), and the number of doses after X. Where survival is the endpoint, this PubChem deposit counts one and a half times the control or more as active, and values a quarter to a half above the control carry no call in these data; other NCI protocols may use other cut-offs. Some doses were run more than once; the values are given in rising order. Some T/C values carry the count of animals alive at the toxicity check (mostly the fifth day); without a count, all were alive then.

Test system: L1210 leukemia ip in BDF1 mice, survival T/C
Experiment: NCI In Vivo Anticancer Drug Screen. Data for tumor model L1210 Leukemia (intraperitoneal) in B6D2F1 (BDF1) mice
Conditions: T/C endpoint: mean survival time, higher T/C = longer survival
[1] = dose: 60.0 mg/kg/injection, schedule: Q01DX001 (ip), vehicle: carboxymethylcellulose (CMC)
[2] = dose: 100.0 mg/kg/injection, schedule: Q04DX002 (ip), vehicle: Klucel (hydroxypropylcellulose) (HPC)
[3] = dose: 200.0 mg/kg/injection, schedule: Q04DX002 (ip), vehicle: Klucel (hydroxypropylcellulose) (HPC)
[4] = dose: 400.0 mg/kg/injection, schedule: Q04DX002 (ip), vehicle: Klucel (hydroxypropylcellulose) (HPC)
[5] = dose: 400.0 mg/kg/injection, schedule: Q04DX003 (ip), vehicle: saline
[6] = dose: 200.0 mg/kg/injection, schedule: Q01DX001 (ip), vehicle: saline
[7] = dose: 400.0 mg/kg/injection, schedule: Q01DX001 (ip), vehicle: saline

Cc1cc(N(CCCl)CCCl)c(C)cc1NC(=O)c1ccccc1
T/C (dose: 6.0 mg/kg/injection, schedule: Q01DX009 (ip), vehicle: other): 128 and 136 % of control
T/C (dose: 10.0 mg/kg/injection, schedule: Q01DX009 (ip), vehicle: other): 139 % of control [5 of 6 alive]
T/C (dose: 18.0 mg/kg/injection, schedule: Q01DX009 (ip), vehicle: other): 143 % of control
T/C (dose: 26.0 mg/kg/injection, schedule: Q01DX001 (ip), vehicle: other): 127 % of control
T/C (dose: 40.0 mg/kg/injection, schedule: Q01DX001 (ip), vehicle: carboxymethylcellulose (CMC)): 125 % of control
T/C (dose: 40.0 mg/kg/injection, schedule: Q01DX001 (ip), vehicle: other): 125 and 131 % of control
T/C [1]: 131 % of control
T/C (dose: 60.0 mg/kg/injection, schedule: Q01DX001 (ip), vehicle: other): 130 and 147 % of control
T/C (dose: 80.0 mg/kg/injection, schedule: Q01DX001 (ip), vehicle: other): 125 % of control
survivor count (dose: 100.0 mg/kg/injection, schedule: Q01DX001 (ip), vehicle: other): 5 of 6
survivor count (dose: 200.0 mg/kg/injection, schedule: Q01DX001 (ip), vehicle: other): 6 of 6
survivor count (dose: 400.0 mg/kg/injection, schedule: Q01DX001 (ip), vehicle: other): 0 of 6

O=[N+]([O-])c1ccc(N2N=NC3CC/C(=C\c4cccc([N+](=O)[O-])c4)C32N2CCOCC2)cc1 (stereo not given)
survivor count [2]: 0 of 3
survivor count [3]: 0 of 3
survivor count [4]: 0 of 3

COC1C2CCC1[N+](C)(C)CC2 (stereo not given)
survivor count (dose: 200.0 mg/kg/injection, schedule: Q01DX009 (ip), vehicle: saline): 0 of 6
survivor count (dose: 400.0 mg/kg/injection, schedule: Q01DX009 (ip), vehicle: saline): 0 of 6

C=C(Br)CN(CC)C(C)=O
survivor count (dose: 200.0 mg/kg/injection, schedule: Q04DX003 (ip), vehicle: saline): 5 of 6
survivor count [5]: 0 of 6

Cn1c(=O)c2n[se]nc2n(C)c1=O
survivor count (dose: 12.5 mg/kg/injection, schedule: Q01DX009 (ip), vehicle: Klucel (hydroxypropylcellulose) (HPC)): 3 of 3
survivor count (dose: 50.0 mg/kg/injection, schedule: Q04DX002 (ip), vehicle: Klucel (hydroxypropylcellulose) (HPC)): 0 of 3
survivor count [2]: 0 of 3
survivor count [3]: 0 of 3
survivor count [4]: 0 of 3

CCCCC(CC)CCC(=O)CC(C)C (stereo not given)
survivor count (dose: 400.0 mg/kg/injection, schedule: Q01DX009 (ip), vehicle: Klucel (hydroxypropylcellulose) (HPC)): 4 of 6

CN(C)CCCN=C(N)CCl
survivor count (dose: 200.0 mg/kg/injection, schedule: Q04DX002 (ip), vehicle: saline): 2 of 3
survivor count (dose: 400.0 mg/kg/injection, schedule: Q04DX002 (ip), vehicle: saline): 0 of 3

Cc1ccc(C)c(C[P+](c2ccccc2)(c2ccccc2)c2ccccc2)c1
survivor count (dose: 30.0 mg/kg/injection, schedule: Q01DX001 (ip), vehicle: saline): 2 of 6
survivor count (dose: 60.0 mg/kg/injection, schedule: Q01DX001 (ip), vehicle: saline): 0 of 6

CC1=C(C)CC([P+](c2ccccc2)(c2ccccc2)c2ccccc2)CC1 (stereo not given)
survivor count (dose: 50.0 mg/kg/injection, schedule: Q01DX001 (ip), vehicle: saline with Tween-80): 2 of 3
survivor count (dose: 100.0 mg/kg/injection, schedule: Q01DX001 (ip), vehicle: saline with Tween-80): 0 of 3
survivor count (dose: 200.0 mg/kg/injection, schedule: Q01DX001 (ip), vehicle: saline with Tween-80): 0 of 3

CCCCCCCCCCCC(=O)[O][Hg][c]1ccccc1
survivor count (dose: 150.0 mg/kg/injection, schedule: Q01DX001 (ip), vehicle: other): 0 of 6
survivor count (dose: 300.0 mg/kg/injection, schedule: Q01DX001 (ip), vehicle: other): 0 of 6

Cc1cc(O)c(CN(C)C)cc1O
survivor count (dose: 300.0 mg/kg/injection, schedule: Q01DX001 (ip), vehicle: saline): 0 of 6

O=CC(CO)CC(C=O)n1cnc2c(=O)[nH]cnc21 (stereo not given)
T/C [6]: 129 % of control
T/C [7]: 137 % of control

CN(CCCN1C(=O)c2ccccc2C1=O)c1ccc(N=O)cc1
survivor count (dose: 200.0 mg/kg/injection, schedule: Q01DX001 (ip), vehicle: Klucel (hydroxypropylcellulose) (HPC)): 2 of 6
survivor count (dose: 400.0 mg/kg/injection, schedule: Q01DX001 (ip), vehicle: Klucel (hydroxypropylcellulose) (HPC)): 1 of 6

CCN1/C(=C/C=C/c2oc3ccccc3[n+]2CC)Oc2ccccc21
survivor count (dose: 1.6 mg/kg/injection, schedule: Q01DX009 (ip), vehicle: saline): 0 of 6
survivor count (dose: 2.0 mg/kg/injection, schedule: Q01DX001 (ip), vehicle: saline): 1 of 4
survivor count (dose: 4.0 mg/kg/injection, schedule: Q01DX001 (ip), vehicle: saline): 1 of 4
survivor count (dose: 5.0 mg/kg/injection, schedule: Q01DX001 (ip), vehicle: saline): 0 of 4
survivor count (dose: 8.0 mg/kg/injection, schedule: Q01DX001 (ip), vehicle: saline): 0 of 4
survivor count (dose: 10.0 mg/kg/injection, schedule: Q01DX001 (ip), vehicle: saline): 0 of 4
survivor count (dose: 20.0 mg/kg/injection, schedule: Q01DX001 (ip), vehicle: saline): 0 of 4
survivor count (dose: 40.0 mg/kg/injection, schedule: Q01DX001 (ip), vehicle: saline): 0 of 4
survivor count (dose: 50.0 mg/kg/injection, schedule: Q01DX001 (ip), vehicle: saline): 0 of 4
survivor count (dose: 80.0 mg/kg/injection, schedule: Q01DX001 (ip), vehicle: saline): 0 of 4
survivor count (dose: 100.0 mg/kg/injection, schedule: Q01DX001 (ip), vehicle: saline): 0 of 4
survivor count [6]: 0 of 4
survivor count [7]: 0 of 4

CCCCCCCCCCCCCCCC[n+]1ccc(/C=C/c2ccccc2)cc1
survivor count (dose: 15.0 mg/kg/injection, schedule: Q01DX001 (ip), vehicle: carboxymethylcellulose (CMC)): 6 of 6
survivor count (dose: 30.0 mg/kg/injection, schedule: Q01DX001 (ip), vehicle: carboxymethylcellulose (CMC)): 2 of 6
survivor count [1]: 0 of 6
survivor count (dose: 75.0 mg/kg/injection, schedule: Q01DX001 (ip), vehicle: carboxymethylcellulose (CMC)): 0 of 6
survivor count (dose: 150.0 mg/kg/injection, schedule: Q01DX001 (ip), vehicle: carboxymethylcellulose (CMC)): 0 of 6
survivor count (dose: 300.0 mg/kg/injection, schedule: Q01DX001 (ip), vehicle: carboxymethylcellulose (CMC)): 0 of 6

CC1CCC(NC(=O)NCCCl)c2ccccc21 (stereo not given)
survivor count (dose: 100.0 mg/kg/injection, schedule: Q04DX003 (ip), vehicle: Klucel (hydroxypropylcellulose) (HPC)): 6 of 6
survivor count (dose: 200.0 mg/kg/injection, schedule: Q04DX003 (ip), vehicle: Klucel (hydroxypropylcellulose) (HPC)): 3 of 6
survivor count (dose: 400.0 mg/kg/injection, schedule: Q04DX003 (ip), vehicle: Klucel (hydroxypropylcellulose) (HPC)): 3 of 6

NNC(=O)CNc1ccc(Br)cc1
survivor count [4]: 0 of 3

O=c1[nH]c2nc(Cl)c(Cl)nc2[nH]1
survivor count [5]: 1 of 6

COc1ccccc1NC(=O)Nc1c(C)cc(C)cc1C
survivor count (dose: 100.0 mg/kg/injection, schedule: Q01DX009 (ip), vehicle: Klucel (hydroxypropylcellulose) (HPC)): 6 of 6

COc1cccc2c1C(=O)c1c(O)c3c(c(O)c1C2=O)CC(O)(C(C)=O)CC3OC1CC(NC(=S)Nc2ccccc2)C(O)C(C)O1 (stereo not given)
T/C (dose: 18.75 mg/kg/injection, schedule: Q04DX003 (ip), vehicle: saline with Tween-80): 129 % of control
T/C (dose: 25.0 mg/kg/injection, schedule: Q01DX009 (ip), vehicle: saline with Tween-80): 138 % of control
T/C (dose: 27.5 mg/kg/injection, schedule: Q04DX003 (ip), vehicle: saline with Tween-80): 126 % of control
T/C (dose: 50.0 mg/kg/injection, schedule: Q01DX009 (ip), vehicle: saline with Tween-80): 127 % of control
T/C (dose: 75.0 mg/kg/injection, schedule: Q04DX003 (ip), vehicle: saline with Tween-80): 131 % of control
T/C (dose: 150.0 mg/kg/injection, schedule: Q04DX003 (ip), vehicle: saline with Tween-80): 133 % of control
